Results taken from patent publication US20050238581A1, “Dynamic hepatic recycling glucose tolerance test” (priority 2002, published 2005).

Test: intraperitoneal hepatic recycling glucose tolerance test (HRGTT) with [1, 2-^13C2]-glucose load
Format: in vivo, C57BL6 mice
Details: liver cytosol, relative to actin, over the 3 hours of the test
Protocol: Stable isotopes of the M2 isotopomer glucose was administered at 1 mg glucose/gm body weight by intraperitoneal injection. Animals were euthanized by an overdose of isoflurane anesthesia, and tissue from liver and skeletal muscle were rapidly dissected free, snap-frozen in liquid nitrogen, and stored at −80° C. until processed for isolation of RNA or glycogen. Cytosolic protein was extracted from the liver tissue after homogenization with 10 strikes in lysis buffer containing 0.25 M sucrose, I OmM Tris-HCL(pH7.4), 3 mM MgCL2, 0.1 mM PMSF, 20 mM NaF, 1 mM Na3VO4, 1 MM Na4P207, 1 μg/ml of leupeptin/aprotinin/pepstatin. The resulting cell lysate was filtered with 4 layers of cheesecloth. Nuclei were pelleted by centrifugation at 1000 g for 10 min. Mitochondria were precipitated by centrifugation at 15,000 g for 20 min from the supernatant. The cytosolic fraction was isolated as the supernatant obtained from last ultra-centrifugation at 100,000 g at 4° C. for 1 hr. Protein concentration from cytosol were measured by using an absorbance at 595 run (BCA kit from Pierce). 60 1 μg of protein extracts from cytosol were separated by 10% SDS-PAGE. The membrane blots were incubated with anti-GK at 1:2500 (v/v), anti-G6PDH at 1:2000 (v/v), anti-PEPCK at 1:500 (v/v), and anti-p-actin at 1:2000 (v/v), for either 1 hr in western washing buffer at RT or overnight at 4 C after blocking. The blots were hybridized with secondary antibodies coupled to horseradish peroxidase for 40 to 60 min at RT. Immunodetection was accomplished using enhanced chemiluminescence. Density of each band was determined by scanning the exposed film. The time course of glucose and lactate isotopomers in plasma, and glucose isotopomers in liver glycogen was determined using gas chromatography/mass spectrometry. […] The absorption of administered glucose was monitored by the time course of M2 isotopomer, and hepatic glucose recycling by the time course of M1 isotopomer of glucose.

SMILES: OC[C@H]1OC(O)[C@H](O)[C@@H](O)[C@@H]1O (stereo partly drawn) [[1,2-^13C2]-glucose]
- drop of hepatic PEPCK expression, Western blot: 50%
- rise of hepatic glucokinase (GK) expression, Western blot: three-fold
- rise of hepatic glucose-6-phosphate dehydrogenase (G6PDH) expression, Western blot: 2.5 fold
